Results: the supplement of paper PMC7858590
Values joined by “and” are separate entries in the source; they are usually repeats but may differ in a detail not shown here. Equal values may be shown once. ± gives the standard deviation of the averaged measurements. Over roughly 3,800 compounds, “cell shape (eccentricity) Z-score vs DMSO control” has its median near 1.1; the lowest 2% begin near -4.7. The list shows a part of the results.

The compounds below were run on human monocyte-derived macrophages (M0) (assay: cell shape (eccentricity) Z-score vs DMSO control; higher = more elongated, M2-like morphology). Details: 20 µM; 24 h; macrophage state: M0 (M-CSF).
Procedure: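 Primary human monocyte-derived macrophages (M-CSF differentiated, pooled from 4 donors, 5000 cells/well in 384-well plates) were treated with each compound at 20 uM for 24 h, then fixed and stained with phalloidin/DAPI and imaged on an Opera Phenix (6 fields, about 1000 cells/well). Cell eccentricity was measured with CellProfiler, and a Z-score (t-test) was computed against 4 DMSO control wells in the same row. Negative values mean round (M1-like) cells and positive values mean elongated (M2-like) cells; the paper's hit cutoffs are Z <= -4 (M1) and Z >= 6 (M2). Scale: negative = round, M1-like.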

Compound	cell shape (Z-score)
C=CCN1C[C@H](C(=O)N(CCCN(C)C)C(=O)NCC)C[C@@H]2c3cccc4[nH]cc(c34)C[C@H]21	4.57
O=C(c1ccccc1O)c1[nH]c(Cl)c(Cl)c1-n1c(C(=O)c2ccccc2O)cc(Cl)c1Cl	2.99
CCCCCCCCCCCCCC(=O)O[C@@H]1[C@@H](C)[C@@]2(O)[C@@H](C=C(CO)C[C@]3(O)C(=O)C(C)=C[C@@H]23)[C@@H]2C(C)(C)[C@]12OC(C)=O	7.06
COc1ccc(-c2cc(=O)c3c(OC)c(OC)c(OC)cc3o2)cc1	3.85
C/C=C1/CN2C3CC1C(CO)C2Cc1c3[nH]c2ccc(OC)cc12 (stereo not given)	0.661 ± 2.9
COc1cc(Br)c(OC)c2c1C(CN)C2 (stereo not given)	-4.96
COc1ccc(OC)c(C(O)C(C)N)c1 (stereo not given)	2.8
O=C(O)COc1ccc(Cl)cc1Cl	1.28
C=C(C)[C@@]12O[C@@H]1[C@@]1(C)C(=C[C@H]2O)CC[C@@H](O)[C@@H]1C	2.83
C=C(C)[C@@H]1CCC(C)=C[C@H]1c1c(OC)cc(C)cc1OC	1.74
CC(C)n1cnc2c(C(=O)N[C@H]3CN4CCC3CC4)cc(Cl)cc21	-0.185
CN(C)c1ccc(/C=C2\CCCN=C2c2cccnc2)cc1	1.62
O=C1NCN(c2ccccc2)C12CCN(CCCOc1ccc(F)cc1)CC2	1.17
CC1(C)C2C[C@@H](O)[C@]3(C)C(CC[C@@]4(C)[C@H](c5ccoc5)OC(=O)[C@H]5O[C@]543)[C@@]2(C)[C@@H](O)C[C@H]1O (stereo not given in full)	0.737
COC(=O)C=CC(=O)NC1CCC2(O)C3Cc4ccc(O)c5c4C2(CCN3CC2CC2)C1O5 (stereo not given)	-2.22
CC1=C[C@H]2[C@]3(O)[C@H](C)[C@@H](O)[C@@]4(O)[C@H]([C@@H]3C=C(CO)C[C@]2(O)C1=O)C4(C)C	1.75
COc1ccc2c(c1O)-c1cc(O)cc3c1[C@@H](C2)N(C)CC3	0.611
C=C1CC2C(CC[C@]3(C)C(=O)CCC23)[C@@]2(C)C=CC(=O)C=C12 (stereo not given in full)	3.28
COc1cc2occc2c2oc(=O)ccc12	4.65
CC(C)c1ccc2c(c1O)CC[C@H]1C3=C(CC[C@]21C)C(=O)OC3	-1.92
N#CC(C#N)=Cc1ccc(O)c(O)c1	2.09
CN([N+][O-])c1cc(O)ccc1O	-4.54
c1ccc(C2CC2)c(OCC2=NCCN2)c1	0.849 and 2.54

Compound	cell shape (Z-score)
C[C@@H]1O[C@@H](O[C@H]2CC[C@]3(C=O)C4CC[C@]5(C)[C@@H](C6=CC(=O)OC6)CC[C@]5(O)C4CC[C@]3(O)C2)[C@H](O)[C@H](O)[C@H]1O (stereo not given in full)	0.553
COc1cc(C(=O)O[C@H]2[C@@H]3C=CO[C@@H](O[C@@H]4O[C@H](CO)[C@@H](O)[C@H](O)[C@H]4O)[C@@H]3[C@@]3(CO)O[C@@H]23)ccc1O	-1.41
Clc1ccc(C(OCCN2CCCCC2)c2ccccc2)cc1 (stereo not given)	9.16
c1cncc(C2=NCCC2)c1	0.998
CC(C)(C)c1cc(C=C(C#N)C#N)cc(C(C)(C)C)c1O	-0.65
CN1C(=O)COc2c1cc(Cl)cc2C(=O)NC1CN2CC[C@H]1CC2 (stereo not given)	-3.51
C#CCN(C)[C@H](C)Cc1ccccc1	-1.13
O=c1[nH]c2ccccc2n1C1CCN(CCCC(c2ccc(F)cc2)c2ccc(F)cc2)CC1	-6.33
CC(C)(O)CCC(=O)[C@](C)(O)[C@H]1[C@H](O)C[C@@]2(C)[C@@H]3CC=C4C(C=C(O[C@@H]5O[C@H](CO)[C@@H](O)[C@H](O)[C@H]5O)C(=O)C4(C)C)[C@]3(C)C(=O)C[C@]12C (stereo not given in full)	1.51
CC(NC(C)(C)C)C(=O)c1cccc(Cl)c1 (stereo not given)	1.9
COC(=O)C1CC(=O)C[C@H]2[C@]3(C)C[C@@H](c4ccoc4)OC(=O)[C@H]3CC[C@@]12C (stereo not given in full)	2.46
C=C(C)c1cc2cc(C(C)=O)c(O)cc2o1	3.96
COc1c2c(cc3c1OCO3)CC[N+](C)=C2	3.32
C=C[C@@H]1C2=CCOC(=O)C2=CO[C@H]1O[C@@H]1O[C@H](CO)[C@@H](O)[C@H](O)[C@H]1O	1.3
O=C(/C=C/c1ccccc1)OCC1OC(OC2OC=CC3C(O)C4OC4(CO)C23)C(O)C(O)C1O (stereo not given)	-1.19
C=C(C)CN1CC[C@]23c4c5ccc(O)c4O[C@H]2c2[nH]c4ccccc4c2C[C@@]3(O)C1C5	-2.31
Cc1[nH]c2ccccc2c1CN(C)C	2.11
CN(C)CCc1ccc(O)cc1	2.3
C[N+]1(C)CCc2cc3c(cc2[C@H]1C1OC(=O)c2c1ccc1c2OCO1)OCO3 (stereo not given in full)	-0.597
N#C/C(=C\c1ccc(O)cc1)C(=O)O	1.33
COC1=C[C@@H]2[C@@H]3Cc4ccc(OC)c(O)c4[C@]2(CCN3C)CC1=O	4.36
C[C@]12C=CC(=O)C=C1CC[C@@H]1C2CC[C@]2(C)C(=O)CCC12 (stereo not given in full)	0.931 ± 0.72
CN(C(=O)Cc1ccccc1)C(CN1CCCC1)c1ccccc1 (stereo not given)	1.47

Compound	cell shape (Z-score)
C[C@]12CC[C@H](OC3OC(O)C(O)C(O)C3O)C=C1CCC1C2CC[C@]2(C)[C@@H](c3ccc(=O)oc3)CC[C@]12O (stereo not given in full)	2.21
CC(CO)NC(=O)C1C=C2c3cccc4[nH]cc(c34)C[C@H]2N(C)C1 (stereo not given in full)	0.123
NCCc1c[nH]c2ccc(C(N)=O)cc12	0.46
COC[C@H]1OC(=O)c2coc3c2[C@@]1(C)C1=C(C3=O)C2CCC(=O)[C@@]2(C)C[C@H]1OC(C)=O (stereo not given in full)	0.813
COc1ccc2c3c1O[C@H]1[C@@H](O)C=C[C@H]4C(C2)N(C)CCC341 (stereo not given in full)	0.81
C[C@H]1O[C@@H](O[C@H]2CC[C@]3(CO)C4CC[C@]5(C)[C@@H](C6=CC(=O)OC6)CC[C@]5(O)C4CC[C@H]3C2)[C@H](O)[C@H](O)[C@@H]1O (stereo not given in full)	1.31
CCCCCCC(=O)CCCCCC/C=C/C[C@H](O)[C@@H](O)C(N)(CO)C(=O)O (stereo not given in full)	-1.3
C=CCN1CCC23c4c5ccc(O)c4OC2C(=NNC(=O)c2ccccc2)CCC3(O)C1C5 (stereo not given)	2.96
COc1cc([C@@H]2c3cc4c(cc3[C@H](O)[C@H]3COC(=O)[C@H]23)OCO4)cc(OC)c1OC	8.07
CC1OC(OC2CC(O)C3(CO)C4C(O)CC5(C)C(C6=CC(=O)OC6)CCC5(O)C4CCC3(O)C2)C(O)C(O)C1O (stereo not given)	0.257
CCC1(C2=NCCN2)Cc2ccccc2O1 (stereo not given)	1.25
O=C(NC(=O)c1c(F)cccc1F)Nc1cc(Cl)c(OC(F)(F)C(F)C(F)(F)F)cc1Cl (stereo not given)	-1.05
C[C@]12CCC(=O)C=C1CC[C@@H]1C2CC[C@]2(C)C(=O)CCC12 (stereo not given in full)	6.85
CCOc1cncc(C=CCCNC)c1	1.66
Cc1cc(O)cc2oc(=O)c3c(O)cc(O)cc3c12	1.96
C[C@@H]1O[C@@H](O[C@H]2C[C@@H](O)[C@]3(CO)C4C(CC[C@]3(O)C2)[C@@]2(O)CC[C@H](C3=CC(=O)OC3)[C@@]2(C)C[C@H]4O)[C@H](O)[C@H](O)[C@H]1O (stereo not given in full)	-0.127
C/C=C(\C)C(=O)OC1C(C)=C2C(C1OC(=O)CCCCCCC)C(C)(OC(C)=O)CC(OC(=O)CCC)C1(O)C2OC(=O)C1(C)O (stereo not given)	0.657
CN1CC[C@@H]2CN3CCc4cccc(c43)[C@@H]2C1	1.32
C[C@]12CCC3[C@@H](CC[C@@]45O[C@@H]4C(=O)C(C#N)C[C@]35C)C1CC[C@@H]2O (stereo not given in full)	-3.22
CC(C)(O)c1cc(O)c2c(c1)CCC1C(C)(C(=O)O)CCCC21C (stereo not given)	0.93
CN(C)C(=O)Oc1cc(OC(=O)N(C)C)cc(C(O)CNC(C)(C)C)c1 (stereo not given)	2.11
C[C@]12C=CC(=O)C=C1CCC1C2CC[C@]2(C)C(=O)CCC12 (stereo not given in full)	3.15
CN(C)C(=O)Oc1cccc([N+](C)(C)C)c1	2.05

Compound	cell shape (Z-score)
CCCN1CCO[C@@H]2c3cc(O)ccc3OC[C@H]21	1.71
OC(Cc1ccncc1)C(Cl)(Cl)Cl (stereo not given)	2.5
COc1cc(-n2c(=S)[nH]c3ccccc3c2=O)c(Cl)cc1Cl	1.19
O=c1[nH]c2ccccc2n1CCCN1CCC(n2c(=O)[nH]c3cc(Cl)ccc32)CC1	-1.03
CCCn1c(C)c(C(=O)c2cccc3ccccc23)c2ccccc21	1.57
C=CC[C@]1(O)CCC2C3CCC4=CC(=O)CCC4=C3C=C[C@@]21C (stereo not given in full)	1.08
CCNC(=O)C[C@@H]1N=C(c2ccc(Cl)cc2)c2cc(OC)ccc2-n2c(C)nnc21	6.26
C=C(C)[C@@H]1[C@H]2OC(=O)[C@@H]1[C@]1(O)C[C@H]3O[C@]34C(=O)O[C@H]2[C@]14C	5.17
C=C1[C@@H](C)[C@H]2[C@H](Cc3ccccc3)NC(=O)[C@]23OC(=O)/C=C/[C@H](O)CCC[C@@H](C)C/C=C/[C@H]3[C@@H]1O	-24.4
CCCN(CCC)C1Cc2cc(OC)c(OC)cc2C1	0.0873
COc1cc2c3cc1Oc1c(OC)c(OC)cc4c1[C@@H](Cc1cccc(c1)Oc1ccc(c(O)c1)C[C@@H]3N(C)CC2)N(C)CC4	4.46
CO[C@H]1[C@H](O)[C@H](O[C@H]2CC[C@]3(C)C4CC[C@]5(C)[C@H](C6=CC(=O)OC6)CC[C@]5(O)C4CC[C@@H]3C2)O[C@@H](C)[C@@H]1O[C@@H]1O[C@H](CO[C@@H]2O[C@H](CO)[C@@H](O)[C@H](O)[C@H]2O)[C@@H](O)[C@H](O)[C@H]1O (stereo not given in full)	-3.4
CC1=CC[C@@H]2[C@@H](C1)c1c(O)cc(CC#CCCCNS(C)(=O)=O)cc1OC2(C)C	2.35
C[C@H](Cc1ccc(OCC(=O)O)cc1)NC[C@H](O)c1cccc(Cl)c1	1.57
COc1ccc(C(=O)c2c(C)n(CCN3CCOCC3)c3ccccc23)cc1	-0.409
N#CC(C#N)=Cc1cc(O)c(O)c([N+](=O)[O-])c1	-0.026
O=C1NCN(c2ccccc2)C12CCN(CC1COc3ccccc3O1)CC2 (stereo not given)	2.31
c1ccc2c(c1)[nH]c1cnccc12	0.646
Cc1cc(OC(=O)N2CCCCC2)c(C(C)C)cc1[N+](C)(C)C	0.65
CCC1CC2CC3(C(=O)OC)c4[nH]c5ccc(OC)cc5c4CCN(C2=O)C13 (stereo not given)	0.374
COC(=O)C12CC3CC(C(C)O)C1N(CCc1c2[nH]c2cc(OC)ccc12)C3 (stereo not given)	1.23

Structures listed so far with a cyano group (5):
Compound	cell shape (Z-score)
N#CC(C#N)=Cc1ccc(O)c(O)c1	2.09
CC(C)(C)c1cc(C=C(C#N)C#N)cc(C(C)(C)C)c1O	-0.65
N#C/C(=C\c1ccc(O)cc1)C(=O)O	1.33
C[C@]12CCC3[C@@H](CC[C@@]45O[C@@H]4C(=O)C(C#N)C[C@]35C)C1CC[C@@H]2O (stereo not given in full)	-3.22
N#CC(C#N)=Cc1cc(O)c(O)c([N+](=O)[O-])c1	-0.026
